In publication doi:10.1101/2024.09.26.24313895:
These are yes or no findings as the source states them, for the method shown. Some entries that bind do so weakly or less than the wild type.

The chains behind the UniProt entries cited, without tags or fusion partners. Residues count along the entry.
UniProt Q5JSZ5, residues 1-600: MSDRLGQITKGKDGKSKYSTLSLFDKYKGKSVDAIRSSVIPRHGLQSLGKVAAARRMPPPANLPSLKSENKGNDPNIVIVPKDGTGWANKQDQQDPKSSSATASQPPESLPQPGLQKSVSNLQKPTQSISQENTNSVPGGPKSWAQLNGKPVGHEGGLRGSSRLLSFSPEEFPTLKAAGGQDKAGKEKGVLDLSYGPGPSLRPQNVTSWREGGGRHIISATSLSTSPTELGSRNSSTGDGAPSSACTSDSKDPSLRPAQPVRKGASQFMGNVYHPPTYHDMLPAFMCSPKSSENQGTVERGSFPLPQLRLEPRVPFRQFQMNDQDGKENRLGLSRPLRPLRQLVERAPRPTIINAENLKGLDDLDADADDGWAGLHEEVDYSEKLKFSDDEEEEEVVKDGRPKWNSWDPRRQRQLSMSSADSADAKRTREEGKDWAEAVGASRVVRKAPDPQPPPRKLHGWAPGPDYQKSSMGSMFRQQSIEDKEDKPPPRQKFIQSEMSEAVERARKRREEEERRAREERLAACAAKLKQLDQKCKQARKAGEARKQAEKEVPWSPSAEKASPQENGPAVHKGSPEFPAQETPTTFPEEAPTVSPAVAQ
eIF4G2 N-terminal fragment (1-323 aa) (P78344, residues 1-323): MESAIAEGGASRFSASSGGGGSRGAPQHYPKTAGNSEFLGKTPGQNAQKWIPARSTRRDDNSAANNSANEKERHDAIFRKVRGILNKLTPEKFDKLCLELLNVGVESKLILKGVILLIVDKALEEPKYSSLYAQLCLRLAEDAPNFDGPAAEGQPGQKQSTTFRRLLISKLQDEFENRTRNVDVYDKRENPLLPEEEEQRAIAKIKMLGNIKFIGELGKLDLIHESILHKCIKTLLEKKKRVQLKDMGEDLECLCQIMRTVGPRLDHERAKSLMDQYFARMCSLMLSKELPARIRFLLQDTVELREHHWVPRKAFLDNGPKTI
eIF4G2 C-terminal fragment (545-890 aa) (P78344, residues 545-890): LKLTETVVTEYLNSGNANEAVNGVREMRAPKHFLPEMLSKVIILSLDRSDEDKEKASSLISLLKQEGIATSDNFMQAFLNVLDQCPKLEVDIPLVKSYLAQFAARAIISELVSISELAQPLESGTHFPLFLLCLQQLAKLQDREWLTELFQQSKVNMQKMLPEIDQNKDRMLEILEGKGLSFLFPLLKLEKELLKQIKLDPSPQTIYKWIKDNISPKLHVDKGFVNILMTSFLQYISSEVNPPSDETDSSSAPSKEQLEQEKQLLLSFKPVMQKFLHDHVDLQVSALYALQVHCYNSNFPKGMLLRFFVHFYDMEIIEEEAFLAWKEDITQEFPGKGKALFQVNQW

Molecular target: GST-PRRC2B 1-600 (human) (UniProt Q5JSZ5)
Assay: pull-down

Row | Substance | binding
1 | eIF4G2 C-terminal fragment (545-890 aa) (from UniProt P78344 545-890) (domain or fragment) | binds
2 | eIF4G2 N-terminal fragment (1-323 aa) (from UniProt P78344 1-323) (domain or fragment) | no binding
